Measured values taken from article PMC5488456.
Changes are numbered by the printed parent chain. In names and notes the source's numbering stands. No constants are given. Whether binding was seen depends on the method and setting. Binding seen in cells or lysates may run through a third protein. Some results given as binding are weak or reduced against the parent protein; the word gives no strength.

Biological target: T1, ALDH1A3 G237R mutant protein (human) (UniProt P47895)
T1 sequence: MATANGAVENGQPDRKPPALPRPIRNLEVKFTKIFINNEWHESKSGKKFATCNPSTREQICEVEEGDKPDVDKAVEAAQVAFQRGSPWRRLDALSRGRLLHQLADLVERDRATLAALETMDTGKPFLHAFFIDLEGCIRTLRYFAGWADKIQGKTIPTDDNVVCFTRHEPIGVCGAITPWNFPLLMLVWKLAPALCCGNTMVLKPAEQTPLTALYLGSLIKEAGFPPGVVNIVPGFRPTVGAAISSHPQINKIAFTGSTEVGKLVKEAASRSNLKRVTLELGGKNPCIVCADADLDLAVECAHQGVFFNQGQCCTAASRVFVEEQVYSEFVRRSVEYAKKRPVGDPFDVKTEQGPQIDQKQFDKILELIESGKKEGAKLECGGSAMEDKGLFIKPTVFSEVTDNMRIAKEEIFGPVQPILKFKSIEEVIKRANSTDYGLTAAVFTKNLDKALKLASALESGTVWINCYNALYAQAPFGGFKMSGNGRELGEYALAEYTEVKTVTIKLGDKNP
Test: co-IP; 293T cells transfected with HA- and FLAG-tagged ALDH1A3 constructs; extracted proteins incubated with 3 ug HA antibody, protein A+G agarose beads; immunoblot with anti-FLAG antibodies

binding: binds weakly
B1: ALDH1A3 R96H mutant protein (enzyme, UniProt P47895 1-512)
chain: T1 sequence with R96H, R237G
